No constants are given. Whether binding was seen depends on the method and setting. Binding seen in cells or lysates may run through a third protein. These calls come from enrichment with a bait or labelling near it, and not all partners need be listed.
Key:
Test in all cases: affinity purification with mass spectrometry
[1] = molecular target: PbWIG1-HA (HA-tagged P. berghei WIG1) (P. berghei)
[2] = molecular target: PbCUL4-HA (triple HA-tagged P. berghei Cullin-4) (P. berghei)
[3] = molecular target: PbDDB1-HA (HA-tagged P. berghei DDB1) (P. berghei)
[4] = molecular target: PfCUL4-HA (HA-tagged P. falciparum Cullin-4) (P. falciparum) (UniProt C6KTD3)

Question: “P. berghei RBX1 (from UniProt A0A509AI98)” was tested. Which binding [1] did it give?
Answer: Its binding is “binds”.

Question: What does the source list for “P. berghei WD-repeat protein Important for Gametogenesis 1 (WIG1) (from UniProt A0A509AQC3)”?
Answer: binding [2]: binds; binding [3]: binds

Question: How did the binding [4] turn out when “P. falciparum WD-repeat protein Important for Gametogenesis 1 (WIG1) (from UniProt O97292)” was run?
Answer: Its binding is “binds”.

Question: For “P. berghei DDB1 (from UniProt A0A509AK91)”, which binding [1] is on record?
Answer: The binding was “binds”.

Question: How did the binding [4] turn out when “P. falciparum protein containing WD domains PF3D7_1410300 (from UniProt Q8ILZ2)” was run?
Answer: Its binding is “binds”.

Question: “P. falciparum ubiquitin carboxyl-terminal hydrolase PfUCH7 (from UniProt Q8IBJ1) (enzyme)” was tested. Which binding [4] did it give?
Answer: Its binding is “binds”.

Question: “P. berghei ubiquitin carboxyl-terminal hydrolase PbUCH7 (from UniProt A0A509AEF7) (enzyme)” was tested. Which binding [2] did it give?
Answer: The binding was “binds”.

Source: paper doi:10.1101/2023.07.19.549332
